These are yes or no findings as the source states them, for the method shown. Some binding calls cover weakened binding; strength is not graded here. For some of these results: Sequences can lack the tags named with a protein.
Experiments:
[1] = molecular target: LRP6 on LRP6-transduced HT1080 cells (HA-tagged) (UniProt O75581); experiment: competition against 125I-Mesd for LRP6 (FIG. 10C)
[2] = molecular target: human Myc-tagged LRP5 on transiently transfected HEK293 cells (human) (UniProt O75197); experiment: 125I-Mesd binding to transfected cells (FIG. 2)
[3] = molecular target: human Myc-tagged LRP6 on transiently transfected HEK293 cells (human) (UniProt O75581); experiment: 125I-Mesd binding to transfected cells (FIG. 2)
[4] = molecular target: LRP6 on LRP6-transduced HT1080 cells (HA-tagged) (UniProt O75581); experiment: time course of 125I-Mesd binding to LRP6-transduced HT1080 cells
[5] = molecular target: human Myc-tagged LRP5 on transiently transfected HEK293 cells (human) (UniProt O75197); experiment: 125I-Mesd (5 nM) binding to transiently transfected HEK293 cells (FIG. 2A)
[6] = molecular target: human Myc-tagged LRP6 on transiently transfected HEK293 cells (human) (UniProt O75581); experiment: as above
[7] = molecular target: human Myc-tagged LRP5 on transiently transfected HEK293 cells (human) (UniProt O75197); experiment: 125I-Mesd (5 nM) binding to transiently transfected HEK293 cells
[8] = molecular target: human Myc-tagged LRP6 on transiently transfected HEK293 cells (human) (UniProt O75581); experiment: as above
[9] = molecular target: LRP6 on LRP6-transduced HT1080 cells (HA-tagged) (UniProt O75581); experiment: 125I-Mesd binding to LRP6-transduced HT1080 cells (FIG. 1)
[10] = molecular target: human Myc-tagged LRP5 on transiently transfected HEK293 cells (human) (UniProt O75197); experiment: competition binding assays with 125I-Mesd and 125I-DKK1 (FIG. 10)
[11] = molecular target: LRP6 on LRP6-transduced HT1080 cells (HA-tagged) (UniProt O75581); experiment: immunofluorescence with anti-Myc antibody of conditioned-medium Myc-DKK1 bound to LRP6-transduced HT1080 cells
[12] = molecular target: LRP6 on LRP6-transduced HT1080 cells (HA-tagged) (UniProt O75581); experiment: 125I-DKK1 (5 nM) binding to LRP6-transduced HT1080 cells, 3 h at 4 C
[13] = molecular target: LRP6 on LRP6-transduced HT1080 cells (HA-tagged) (UniProt O75581); experiment: binding of truncated Mesd mutants to cell surface LRP6 (FIG. 3B)

The chains behind the UniProt entries cited, without tags or fusion partners. Residues count along the entry.
UniProt O75581, residues 20-1613: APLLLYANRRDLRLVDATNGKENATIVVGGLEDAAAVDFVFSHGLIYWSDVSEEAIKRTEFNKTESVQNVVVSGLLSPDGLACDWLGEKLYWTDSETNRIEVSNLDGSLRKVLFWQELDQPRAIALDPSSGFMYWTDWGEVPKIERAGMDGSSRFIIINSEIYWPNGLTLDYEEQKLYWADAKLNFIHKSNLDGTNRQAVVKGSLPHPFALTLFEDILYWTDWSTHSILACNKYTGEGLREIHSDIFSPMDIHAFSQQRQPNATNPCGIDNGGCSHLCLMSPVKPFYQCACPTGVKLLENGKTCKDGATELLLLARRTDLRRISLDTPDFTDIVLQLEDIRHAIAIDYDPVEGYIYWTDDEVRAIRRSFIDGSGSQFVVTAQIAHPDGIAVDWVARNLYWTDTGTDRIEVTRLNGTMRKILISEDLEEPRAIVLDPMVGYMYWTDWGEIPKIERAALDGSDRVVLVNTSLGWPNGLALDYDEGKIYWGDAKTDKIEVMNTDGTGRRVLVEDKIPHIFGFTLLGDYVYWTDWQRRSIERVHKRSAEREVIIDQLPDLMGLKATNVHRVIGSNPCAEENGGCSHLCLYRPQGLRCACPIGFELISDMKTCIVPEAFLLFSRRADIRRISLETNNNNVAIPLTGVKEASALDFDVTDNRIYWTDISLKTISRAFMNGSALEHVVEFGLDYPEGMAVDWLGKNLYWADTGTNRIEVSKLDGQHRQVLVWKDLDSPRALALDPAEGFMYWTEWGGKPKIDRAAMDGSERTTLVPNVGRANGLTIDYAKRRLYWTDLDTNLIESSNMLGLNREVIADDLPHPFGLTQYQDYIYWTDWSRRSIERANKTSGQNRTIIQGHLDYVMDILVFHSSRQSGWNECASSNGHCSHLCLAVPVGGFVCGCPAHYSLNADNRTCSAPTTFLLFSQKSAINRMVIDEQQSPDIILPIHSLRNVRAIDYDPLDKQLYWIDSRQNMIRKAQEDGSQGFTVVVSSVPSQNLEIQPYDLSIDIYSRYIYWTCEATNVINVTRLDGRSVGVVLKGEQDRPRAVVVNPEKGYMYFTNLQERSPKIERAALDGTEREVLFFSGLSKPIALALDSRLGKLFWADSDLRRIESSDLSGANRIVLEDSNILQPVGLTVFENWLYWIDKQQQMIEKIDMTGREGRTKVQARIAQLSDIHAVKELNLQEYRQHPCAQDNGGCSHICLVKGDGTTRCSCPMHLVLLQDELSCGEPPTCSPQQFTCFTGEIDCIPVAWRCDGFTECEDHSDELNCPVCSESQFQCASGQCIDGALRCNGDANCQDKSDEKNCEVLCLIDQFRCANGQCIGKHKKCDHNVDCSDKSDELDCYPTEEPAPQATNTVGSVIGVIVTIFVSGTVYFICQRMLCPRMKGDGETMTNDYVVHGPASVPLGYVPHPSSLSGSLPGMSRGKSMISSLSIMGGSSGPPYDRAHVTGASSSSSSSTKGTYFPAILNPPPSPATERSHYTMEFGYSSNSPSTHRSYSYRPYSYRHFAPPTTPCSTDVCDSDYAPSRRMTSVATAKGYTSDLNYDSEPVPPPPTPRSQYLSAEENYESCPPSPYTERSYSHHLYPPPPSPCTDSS
UniProt O75197, residues 32-1615: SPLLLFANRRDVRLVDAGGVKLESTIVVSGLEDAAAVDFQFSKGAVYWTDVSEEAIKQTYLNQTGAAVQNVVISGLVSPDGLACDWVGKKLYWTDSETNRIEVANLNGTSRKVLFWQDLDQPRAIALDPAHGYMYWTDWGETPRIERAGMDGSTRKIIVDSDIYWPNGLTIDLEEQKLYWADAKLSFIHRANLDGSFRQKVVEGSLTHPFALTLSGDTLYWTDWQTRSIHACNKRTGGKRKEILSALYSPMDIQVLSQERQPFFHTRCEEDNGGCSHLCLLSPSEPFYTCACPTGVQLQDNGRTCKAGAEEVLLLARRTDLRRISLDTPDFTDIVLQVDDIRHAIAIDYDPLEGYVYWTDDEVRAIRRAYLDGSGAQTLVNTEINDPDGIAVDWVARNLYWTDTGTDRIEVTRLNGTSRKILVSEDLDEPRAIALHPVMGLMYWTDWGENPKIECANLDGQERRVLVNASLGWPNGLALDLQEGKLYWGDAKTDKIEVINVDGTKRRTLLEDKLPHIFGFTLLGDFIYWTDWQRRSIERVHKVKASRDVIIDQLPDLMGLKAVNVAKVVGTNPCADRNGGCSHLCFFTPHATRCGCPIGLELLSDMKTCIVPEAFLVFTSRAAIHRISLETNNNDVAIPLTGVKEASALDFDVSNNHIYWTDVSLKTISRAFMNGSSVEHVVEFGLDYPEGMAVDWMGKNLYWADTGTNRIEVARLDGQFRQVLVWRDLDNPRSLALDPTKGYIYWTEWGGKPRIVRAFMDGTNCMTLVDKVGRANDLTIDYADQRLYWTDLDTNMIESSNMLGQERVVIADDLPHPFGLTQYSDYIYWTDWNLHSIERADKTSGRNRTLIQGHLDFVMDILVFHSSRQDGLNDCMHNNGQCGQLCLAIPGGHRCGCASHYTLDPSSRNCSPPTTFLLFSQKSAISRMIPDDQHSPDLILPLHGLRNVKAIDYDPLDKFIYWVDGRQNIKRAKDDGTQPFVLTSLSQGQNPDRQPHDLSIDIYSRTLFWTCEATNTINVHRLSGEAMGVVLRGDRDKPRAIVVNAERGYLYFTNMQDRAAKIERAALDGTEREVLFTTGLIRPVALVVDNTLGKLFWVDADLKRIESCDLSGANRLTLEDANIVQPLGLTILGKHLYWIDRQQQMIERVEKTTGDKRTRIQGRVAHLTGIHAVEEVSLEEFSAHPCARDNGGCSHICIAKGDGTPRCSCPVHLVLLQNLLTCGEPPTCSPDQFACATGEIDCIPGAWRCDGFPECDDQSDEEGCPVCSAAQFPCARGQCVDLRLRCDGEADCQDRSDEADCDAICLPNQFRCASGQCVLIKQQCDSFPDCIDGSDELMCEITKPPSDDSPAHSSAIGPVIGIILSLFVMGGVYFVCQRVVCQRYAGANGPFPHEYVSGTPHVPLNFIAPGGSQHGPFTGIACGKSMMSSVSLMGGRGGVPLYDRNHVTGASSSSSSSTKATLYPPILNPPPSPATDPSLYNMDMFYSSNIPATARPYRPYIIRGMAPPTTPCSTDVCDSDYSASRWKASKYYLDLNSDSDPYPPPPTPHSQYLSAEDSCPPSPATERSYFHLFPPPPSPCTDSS

Measured: binding

B1: recombinant mouse Mesd protein (wild type) (protein, not shown: small tags and cut ends)
chain: ADTPGEATPPPRKKKDIRDYNDADMARLLEQWEKDDDIEEGDLPEHKRPSAPIDFSKLDPGKPESILKMTKKGKTLMMFVTVSGNPTEKETEEITSLWQGSLFNANYDVQRFIVGSDRAIFMLRDGSYAWEIKDFLVSQDRCAEVTLEGQMYPGKGGGSKEKNKTKPEKAKKKEGDRKPRASKEDNRAGSRREDL
modifications: 125I-iodinated (IODO-GEN) when used as radioligand
not listed: [11] | [12] | [13]
binds: all other assays above

B2: human Myc-tagged DKK1 (conditioned medium of transfected HEK293 cells) (ligand, UniProt O94907 32-266, looked up, not shown: small tags and cut ends)
chain: TLNSVLNSNAIKNLPPPLGGAAGHPGSAVSAAPGILYPGGNKYQTIDNYQPYPCAEDEECGTDEYCASPTRGGDAGVQICLACRKRRKRCMRHAMCCPGNYCKNGICVSSDQNHFRGEIEETITESFGNDHSTLDGYSRRTTLSSKMYHTKGQEGSVCLRSSDCASGLCCARHFWSKICKPVLKEGQVCTKHRRKGSHGLEIFQRCYCGEGLSCRIQKDHHQASNSSRLHTCQRH
binds: [11]

B3: human recombinant DKK1 protein (R&D Systems) (ligand, UniProt O94907 32-266, looked up)
chain: TLNSVLNSNAIKNLPPPLGGAAGHPGSAVSAAPGILYPGGNKYQTIDNYQPYPCAEDEECGTDEYCASPTRGGDAGVQICLACRKRRKRCMRHAMCCPGNYCKNGICVSSDQNHFRGEIEETITESFGNDHSTLDGYSRRTTLSSKMYHTKGQEGSVCLRSSDCASGLCCARHFWSKICKPVLKEGQVCTKHRRKGSHGLEIFQRCYCGEGLSCRIQKDHHQASNSSRLHTCQRH
modifications: 125I-iodinated
binds: [12]

B4: Mesd(12-195) (protein, not shown: small tags and cut ends)
chain: RKKKDIRDYNDADMARLLEQWEKDDDIEEGDLPEHKRPSAPIDFSKLDPGKPESILKMTKKGKTLMMFVTVSGNPTEKETEEITSLWQGSLFNANYDVQRFIVGSDRAIFMLRDGSYAWEIKDFLVSQDRCAEVTLEGQMYPGKGGGSKEKNKTKPEKAKKKEGDRKPRASKEDNRAGSRREDL
modifications: 125I-iodinated when used as radioligand
binds: [13]
